Experimental data: publication PMC8854732
Results are given in words; binding and its absence hold for the method and conditions named. Binding seen in cells or lysates may run through a third protein. Some binding calls cover weakened binding; strength is not graded here. For some assays here: Sequences can lack the tags named with a protein.

Amino acid sequences for entries named in this document (tags omitted). A change or cut given only in a name is not applied to a line headed by its entry.
UniProt Q9Y294: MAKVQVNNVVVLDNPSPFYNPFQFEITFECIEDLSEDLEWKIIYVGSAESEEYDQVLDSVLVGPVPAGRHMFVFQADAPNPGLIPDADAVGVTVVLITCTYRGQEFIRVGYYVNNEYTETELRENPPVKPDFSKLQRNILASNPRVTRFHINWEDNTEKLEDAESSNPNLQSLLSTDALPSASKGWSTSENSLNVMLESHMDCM
UniProt Q9NVP2: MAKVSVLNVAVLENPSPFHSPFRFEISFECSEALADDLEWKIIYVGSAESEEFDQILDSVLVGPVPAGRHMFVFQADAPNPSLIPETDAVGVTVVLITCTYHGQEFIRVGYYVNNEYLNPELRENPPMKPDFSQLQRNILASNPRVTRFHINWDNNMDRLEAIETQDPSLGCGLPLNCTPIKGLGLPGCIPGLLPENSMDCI
UniProt P54198: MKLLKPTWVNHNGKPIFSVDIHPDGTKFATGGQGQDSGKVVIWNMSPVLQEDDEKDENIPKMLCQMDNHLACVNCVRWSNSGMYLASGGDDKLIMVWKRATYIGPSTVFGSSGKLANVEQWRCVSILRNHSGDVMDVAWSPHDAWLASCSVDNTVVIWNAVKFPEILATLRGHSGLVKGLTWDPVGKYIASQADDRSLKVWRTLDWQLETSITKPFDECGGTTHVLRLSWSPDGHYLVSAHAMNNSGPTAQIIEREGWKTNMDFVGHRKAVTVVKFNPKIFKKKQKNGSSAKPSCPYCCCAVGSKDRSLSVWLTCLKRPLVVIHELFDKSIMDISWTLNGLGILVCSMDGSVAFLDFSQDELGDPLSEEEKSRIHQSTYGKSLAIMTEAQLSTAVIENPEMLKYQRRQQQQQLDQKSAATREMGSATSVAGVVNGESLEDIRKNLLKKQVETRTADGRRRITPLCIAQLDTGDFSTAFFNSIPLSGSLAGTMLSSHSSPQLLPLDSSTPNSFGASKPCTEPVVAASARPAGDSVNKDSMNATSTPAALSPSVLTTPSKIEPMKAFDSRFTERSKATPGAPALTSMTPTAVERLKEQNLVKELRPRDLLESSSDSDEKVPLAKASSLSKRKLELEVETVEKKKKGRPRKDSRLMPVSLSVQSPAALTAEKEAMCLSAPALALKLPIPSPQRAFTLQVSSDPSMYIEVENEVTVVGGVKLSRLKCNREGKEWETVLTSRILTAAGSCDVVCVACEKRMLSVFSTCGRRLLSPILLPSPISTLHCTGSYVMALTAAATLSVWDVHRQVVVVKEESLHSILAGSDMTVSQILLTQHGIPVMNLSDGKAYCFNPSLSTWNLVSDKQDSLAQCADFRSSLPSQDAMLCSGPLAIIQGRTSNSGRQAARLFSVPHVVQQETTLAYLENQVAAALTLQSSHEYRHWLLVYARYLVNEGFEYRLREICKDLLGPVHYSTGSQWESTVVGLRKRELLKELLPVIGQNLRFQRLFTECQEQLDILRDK

Assays:
FLAG-tagged RIF1 = FLAG-tagged RIF1 (UniProt Q5UIP0); assay: co-IP; anti-FLAG M2 agarose IP from extracts of transfected HEK293 cells, NTEN lysis buffer (150 mM NaCl, 0.5% NP-40), 4 °C 4 h, elution with 3× Flag peptide, immunoblot; with/without bleomycin (20 μg/mL, 3 h); soluble and chromatin fractions
[1] = molecular target: T1, MBP–RIF1_B (RIF1 aa1180–1270) (UniProt Q5UIP0); assay: pull-down; MBP pulldown: pDEST26–MBP–RIF1_B or pDEST26–MBP transfected into HEK293 suspension cells, lysate in NTEN buffer on amylose resin 4 °C 4 h, elution with maltose
T1 sequence: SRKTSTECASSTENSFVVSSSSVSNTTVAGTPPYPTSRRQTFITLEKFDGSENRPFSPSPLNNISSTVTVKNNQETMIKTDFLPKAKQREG

FLAG-tagged ASF1a = FLAG-tagged ASF1a (UniProt Q9Y294); assay: co-IP; anti-FLAG M2 agarose IP from extracts of transfected HEK293 cells, NTEN lysis buffer (150 mM NaCl, 0.5% NP-40), 4 °C 4 h, elution with 3× Flag peptide, immunoblot; with/without bleomycin (20 μg/mL, 3 h); soluble and chromatin fractions
FLAG-tagged ASF1b = FLAG-tagged ASF1b (UniProt Q9NVP2); assay: as above
ASF1a V94R = ASF1a V94R (UniProt Q9Y294); assay: as above

Substance	binding (FLAG-tagged RIF1)	binding (FLAG-tagged ASF1a)	further results
ASF1a (endogenous, HEK293) (from UniProt Q9Y294 1-204)	binds	–	binding [1]: binds
ASF1b (endogenous, HEK293) (from UniProt Q9NVP2 1-202)	binds	–	–
HIRA (endogenous, HEK293) (from UniProt P54198 1-1017)	–	binds	–

More lines, main results first:

binding (FLAG-tagged RIF1)	binding (FLAG-tagged ASF1a)	Substance	further results
–	binds	RIF1 (endogenous, HEK293) (from UniProt Q5UIP0 1-2472)	binding (FLAG-tagged ASF1b): binds; binding (ASF1a V94R): binds
–	binds	GFP-RIF1 wild-type (from UniProt Q5UIP0 1-2472)	–
